The list shows a part of the results.
Key:
Assay in all cases: glycan array binding signal (z-score within array); higher = stronger binding
Conditions in all cases: glycan notation: IUPAC condensed, linker removed
Gal3S4S(b1-4)GlcNAc = target: Gal3S4S(b1-4)GlcNAc
Procedure, shortened: (§1)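 Glycan array binding is given as a within-array Z-score, which can be read as non-binding when negative. The arrays, 3228 of them, came from the Consortium for Functional Glycomics database and were retained only where the protein sequence was available. Z-scores were averaged across arrays of the same protein sequence at different concentrations or buffers and across linkers.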

Gal3S6S(b1-4)GlcNAc = target: Gal3S6S(b1-4)GlcNAc
Procedure, shortened: as §1

Gal3S6S(b1-4)GlcNAc6S = target: Gal3S6S(b1-4)GlcNAc6S
Procedure, shortened: as §1

Gal4S(b1-4)GlcNAc = target: Gal4S(b1-4)GlcNAc
Procedure, shortened: as §1

Gal4S6S(b1-4)GlcNAc = target: Gal4S6S(b1-4)GlcNAc
Procedure, shortened: as §1

Gal6P(b1-4)GlcNAc = target: Gal6P(b1-4)GlcNAc
Procedure, shortened: as §1

Gal6S(b1-3)GlcNAc = target: Gal6S(b1-3)GlcNAc
Procedure, shortened: as §1

Gal6S(b1-3)GlcNAc6S = target: Gal6S(b1-3)GlcNAc6S
Procedure, shortened: as §1

Gal6S(b1-4)Glc = target: Gal6S(b1-4)Glc
Procedure, shortened: as §1

Gal6S(b1-4)Glc6S = target: Gal6S(b1-4)Glc6S
Procedure, shortened: as §1

Gal6S(b1-4)GlcNAc = target: Gal6S(b1-4)GlcNAc
Procedure, shortened: as §1

Gal6S(b1-4)GlcNAc6S = target: Gal6S(b1-4)GlcNAc6S
Procedure, shortened: as §1

GalNAc(a1-3)Gal = target: GalNAc(a1-3)Gal
Procedure, shortened: as §1

GalNAc(a1-3)GalNAc = target: GalNAc(a1-3)GalNAc
Procedure, shortened: as §1

[1] = target: GalNAc(a1-3)GalNAc(b1-3)Gal(a1-4)Gal(b1-4)Glc
Procedure, shortened: as §1

[2] = target: GalNAc(a1-3)GalNAc(b1-3)Gal(a1-4)Gal(b1-4)GlcNAc
Procedure, shortened: as §1

GalNAc(b1-3)Gal = target: GalNAc(b1-3)Gal
Procedure, shortened: as §1

[3] = target: GalNAc(b1-3)Gal(a1-4)Gal(b1-4)GlcNAc
Procedure, shortened: as §1

[4] = target: GalNAc(b1-3)Gal(a1-4)Gal(b1-4)GlcNAc(b1-3)Gal(b1-4)Glc
Procedure, shortened: as §1

[5] = target: GalNAc(b1-3)Gal(a1-6)Gal(b1-4)Glc
Procedure, shortened: as §1

GalNAc(b1-3)GalNAc = target: GalNAc(b1-3)GalNAc
Procedure, shortened: as §1

GalNAc(b1-3)GlcNAc = target: GalNAc(b1-3)GlcNAc
Procedure, shortened: as §1

GalNAc(b1-4)Gal(b1-4)Glc = target: GalNAc(b1-4)Gal(b1-4)Glc
Procedure, shortened: as §1

GalNAc(b1-4)GlcNAc = target: GalNAc(b1-4)GlcNAc
Procedure, shortened: as §1

[6] = target: GalNAc(b1-4)GlcNAc(b1-2)Man
Procedure, shortened: as §1

[7] = target: GalNAc(b1-4)GlcNAc(b1-2)Man(a1-3)[GalNAc(b1-4)GlcNAc(b1-2)Man(a1-6)]Man(b1-4)GlcNAc(b1-4)GlcNAc
Procedure, shortened: as §1

[8] = target: GalNAc(b1-4)GlcNAc(b1-3)GalNAc(b1-4)GlcNAc
Procedure, shortened: as §1

GalNAc(b1-4)GlcNAc6S = target: GalNAc(b1-4)GlcNAc6S
Procedure, shortened: as §1

GalNAc(b1-6)GalNAc = target: GalNAc(b1-6)GalNAc
Procedure, shortened: as §1

GalNAc3S(b1-4)GlcNAc = target: GalNAc3S(b1-4)GlcNAc
Procedure, shortened: as §1

GalNAc3S(b1-4)GlcNAc3S = target: GalNAc3S(b1-4)GlcNAc3S
Procedure, shortened: as §1

[9] = target: GalNAc3S(b1-4)[Fuc(a1-3)]GlcNAc
Procedure, shortened: as §1

GalNAc4S6S(b1-4)GlcNAc = target: GalNAc4S6S(b1-4)GlcNAc
Procedure, shortened: as §1

GalNAc6S(b1-4)GlcNAc = target: GalNAc6S(b1-4)GlcNAc
Procedure, shortened: as §1

Glc(a1-4)Glc = target: Glc(a1-4)Glc
Procedure, shortened: as §1

[10] = target: Glc(a1-4)Glc(a1-4)Glc(a1-4)Glc
Procedure, shortened: as §1

Glc(a1-6)Glc(a1-6)Glc = target: Glc(a1-6)Glc(a1-6)Glc
Procedure, shortened: as §1

[11] = target: Glc(a1-6)Glc(a1-6)Glc(a1-6)Glc
Procedure, shortened: as §1

B1: HA-00510 (Pseudomonas aeruginosa), Q02V39_PSEAB (protein)
chain: GVPIVNIATPNGAGLSNNHFRDYNVGANGLILNNATGKTQGTQLGGIILGNPNLKGQAAQVILNQVTGGNRSTLAGYTEVAGQSARVIVANPHGITCQGCGFINTPRATLTTGKPIMDGQRLERFQVDGGDIVVEGAELNVGNLEQFDLITRSAKLNAKLYAKNLNIVTGRNDVQADSLQATPRAADGSEKPQLAIDSSALGGMYAGAIRLVGTEQGVGVKLAGDMAASGGDIRIDASGKLSLAQASSQGDLKIAAQAVELNGKTYAGGSAEIRSAEELVNRQS
- glycan array binding signal (z-score) (Gal3S4S(b1-4)GlcNAc): -0.526
- glycan array binding signal (z-score) (Gal3S6S(b1-4)GlcNAc): 0.402
- glycan array binding signal (z-score) (Gal3S6S(b1-4)GlcNAc6S): 0.86
- glycan array binding signal (z-score) (Gal4S(b1-4)GlcNAc): -0.364
- glycan array binding signal (z-score) (Gal4S6S(b1-4)GlcNAc): -0.44
- glycan array binding signal (z-score) (Gal6P(b1-4)GlcNAc): -1.59
- glycan array binding signal (z-score) (Gal6S(b1-3)GlcNAc): -0.953
- glycan array binding signal (z-score) (Gal6S(b1-3)GlcNAc6S): -0.403
- glycan array binding signal (z-score) (Gal6S(b1-4)Glc): 0.154
- glycan array binding signal (z-score) (Gal6S(b1-4)Glc6S): -0.594
- glycan array binding signal (z-score) (Gal6S(b1-4)GlcNAc): -0.516
- glycan array binding signal (z-score) (Gal6S(b1-4)GlcNAc6S): 1.41
- glycan array binding signal (z-score) (GalNAc(a1-3)Gal): 0.138
- glycan array binding signal (z-score) (GalNAc(a1-3)GalNAc): -0.842
- glycan array binding signal (z-score) [1]: 0.53
- glycan array binding signal (z-score) [2]: 1.03
- glycan array binding signal (z-score) (GalNAc(b1-3)Gal): -0.69
- glycan array binding signal (z-score) [3]: -0.153
- glycan array binding signal (z-score) [4]: -0.536
- glycan array binding signal (z-score) [5]: -0.551
- glycan array binding signal (z-score) (GalNAc(b1-3)GalNAc): -0.859
- glycan array binding signal (z-score) (GalNAc(b1-3)GlcNAc): 0.295
- glycan array binding signal (z-score) (GalNAc(b1-4)Gal(b1-4)Glc): -0.476
- glycan array binding signal (z-score) (GalNAc(b1-4)GlcNAc): 1.48
- glycan array binding signal (z-score) [6]: -1.01
- glycan array binding signal (z-score) [7]: 0.732
- glycan array binding signal (z-score) [8]: -0.032
- glycan array binding signal (z-score) (GalNAc(b1-4)GlcNAc6S): -0.03
- glycan array binding signal (z-score) (GalNAc(b1-6)GalNAc): 0.244
- glycan array binding signal (z-score) (GalNAc3S(b1-4)GlcNAc): 0.203
- glycan array binding signal (z-score) (GalNAc3S(b1-4)GlcNAc3S): -0.246
- glycan array binding signal (z-score) [9]: -0.518
- glycan array binding signal (z-score) (GalNAc4S6S(b1-4)GlcNAc): -0.251
- glycan array binding signal (z-score) (GalNAc6S(b1-4)GlcNAc): -0.582
- glycan array binding signal (z-score) (Glc(a1-4)Glc): -0.563
- glycan array binding signal (z-score) [10]: 0.18
- glycan array binding signal (z-score) (Glc(a1-6)Glc(a1-6)Glc): -0.404
- glycan array binding signal (z-score) [11]: 0.119
